PubChem BioAssay AID743454, Peter MacCallum Cancer Centre, 2014
Screen: 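Search for knock-downs that restore vorinostat killing in resistant colon cancer cells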 (primary screen). System: human HCT116-VR colon cancer cells, selected for vorinostat resistance. Reagent: siRNA pool against human genes, 40 nM siRNA pool. Duration: vorinostat for 24 h, read-out about 72 h after transfection. Challenge: vorinostat at 2.5 µM final. Detection: 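Cell viability by CellTiter-Fluor and caspase 3/7 activity by luminescence, each scaled to mock wells per plate, duplicates averaged, then robust z-scored over all plates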. Direction: viability robust z-score: higher = more viable cells than screen typical; caspase robust z-score: higher = more caspase 3/7 activity than screen typical. Rule for the call: 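a knock-down is a hit when classed RV1 or RV2 for lowered viability, or CA1 or CA2 for caspase activation; those lethal without drug were dropped; hits were retested singly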.
In all, the deposit lists about 18,000 reagents; shown is a random part of them. In the full data, 450 (2.5%) are marked active. 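Single biological run; no consistent viability z cut-off exists, so the class columns, not z-scores, define the calls.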 Unmarked entries are inactive. Reagents against one gene are numbered here. No sequences are given here.

target gene	pool no.	viability hit class	caspase hit class	viability robust z-score	caspase robust z-score
TRPM8	1	no change	no change	0.88	1.13
NAA50	1	no change	no change	0.64	0.02
ELN	1	no change	no change	0.54	0.15
HSPA4L	1	no change	no change	0.94	-0.74
TPT1P8	1	no change	no change	-0.32	0.56
DMXL2	1	no change	no change	0.16	0.38
HS3ST3B1	1	no change	no change	-2.48	4.13
G0S2	1	no change	no change	-0.18	1.21
GAGE5	1	no change	no change	0.22	-0.78
MRPS25	1	no change	no change	1.1	1.68

An excerpt of the results above:
target gene	pool no.	viability hit class	caspase hit class	viability robust z-score	caspase robust z-score
HS3ST3B1	1	no change	no change	-2.48	4.13
G0S2	1	no change	no change	-0.18	1.21

Continued.
target gene	pool no.	viability hit class	caspase hit class	viability robust z-score	caspase robust z-score
FXYD3	1	no change	no change	-0.02	0.96
CDKL2	1	no change	no change	-0.32	-1.01
MFNG	1	no change	no change	-4.96	1.79
TSPAN12	1	no change	no change	1.3	1.7
SNX29	1	no change	no change	-0.26	1.36
SNX29	2	no change	no change	0.88	0.72
ZC3H8	1	no change	no change	-1.17	0.37
CCR7	1	no change	no change	1.18	-0.67
PRR18	1	no change	no change	-0.17	2.1
GTF2F1	1	no change	no change	1.5	4.19
GPATCH4	1	no change	no change	-1.04	-1.05
KCNK7	1	no change	no change	0.25	2.1
CEP55	1	no change	no change	-1.32	-0.18
